Data on 67 molecules can be found in PubChem BioAssay AID1458 (National Center for Advancing Translational Sciences (NCATS), 2008).

Molecules are shown by their SMILES. In all, about 210,000 compounds went through this assay and about 5,900 (2.8%) were called active. Another 5% or so got no clear call; they are omitted. The call rests on the fitted dose curve; in most records, active means well fitted activation curve with a large enough effect; inconclusive means small, poorly fitted or top-dose-only effect; inactive means no such curve, though single readings can be large or run the other way. This is a selection; strong and weak results do not stand in their true shares. The source gives no active or inactive call for entries shown without one.
Potency means the concentration at half of the fitted maximal effect.

The nature of this experiment: qHTS Assay for Enhancers of SMN2 Splice Variant Expression. Further: nearly all actives have a fitted effect of over 55% in size. On activity change, positive = activation: % of control where 0% means no effect. Conditions: HEK293 SMN2-luciferase splicing reporter, luminescence, 30-36 h; activity change, positive = activation: at 46.1 µM (top of the series) unless noted. In short, it runs like this:
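HEK293 cells carry an SMN2 minigene-luciferase reporter in which exon 7 inclusion puts luciferase in frame. Cells were seeded at 2000 cells/well, attached for 10-12 hours, then exposed to compounds for 30-36 hours at 37C before ONE-Glo luminescence.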
On the technique in general: Quantitative high-throughput screening tests each substance at several concentrations.
Turning to `Nc1cc(=O)nc(SCc2ccccc2)n1Cc1ccco1`, the activity change, positive = activation worked out at 25.9%. Consider `Cc1ccc(-c2cn(-c3cccc(Cl)c3)c(S(=O)(=O)CC(=O)Nc3ccccc3F)n2)cc1`, for which the Potency was active: 12.6 µM. As for `CC(C)C(=O)Nc1ccc(NC(=O)c2ccccc2Cl)nc1`, the activity change, positive = activation is 29.3%.

Turning to `CCOC(=O)N1CCN(c2cc(=O)n(-c3ccc(OCC)cc3)c(=O)[nH]2)CC1`, the activity change, positive = activation is 32.1%.

Turning to `COc1cc2c(cc1OC)CN(c1nc(CN3CCCCC3)nc3sc4c(c13)CCCC4)CC2`, the “activity change, positive = activation” value is inactive: -23.1%. In the case of `S=C(NCc1cccs1)Nc1ccccc1`, the activity change, positive = activation worked out at 13.7%. Still for that read-out and setting: to `CCC(C)NC(=O)c1ccccc1C(=O)NC(C)CC` (configuration not stated) belongs 45.3%; to `CC1Cn2c(nc(=O)c3c2NCN(CCc2ccccc2)C3)S1` (configuration not stated), 33.6%; to `O=C(c1cccs1)c1no[n+]([O-])c1C(=O)c1cccs1`, -73.4%. In the case of `CCSc1nnc(NC(=O)c2cccnc2Cl)s1`, the Potency is active: 17.8 µM. For `COC(=O)c1cc2c(cc1[N+](=O)[O-])OCO2`, the activity change, positive = activation was 30.8%. On the same count and under the same terms, the figure for `Cc1ccc(C)c(N2CCN(C(=O)C3CCCCN3S(=O)(=O)c3ccc(F)cc3)CC2)c1` (configuration not stated) is -65%; for `CCOC(=O)c1ccc(NC(=O)Cn2nc(SC)c(S(=O)(=O)c3ccc(Cl)cc3)c2N)cc1` it is inactive: -72.6%. `O=C(C1CC(c2ccccc2O)=NO1)N1CCCCC1` (configuration not stated): the Potency is active: 0.158 µM. Turning to `CCC12CN3CC(CC)(CN(C1)C31C(=O)N(C)c3ccc(C)cc31)C2=O` (configuration not stated), the activity change, positive = activation came to 34.4%. The same measure, in the same setting: the figure for `COc1ccc(NC(=O)CC(C(=O)O)N2CCCCC2)cc1` (configuration not stated) is 17.1%; for `Cc1nc2cc(NC(=O)NCCC3=CCCCC3)ccc2o1` it is -15.2%; for `CCOC(=O)Nc1cc(OCC)c(NC(=O)C2CC2)cc1OCC` it is 30.6%. On to `CCOC(=O)c1ccc(OS(=O)(=O)c2ccccc2)c(OC)c1`, for which the Potency was active: 11.2 µM.

In the case of `COc1ccccc1N1CCN(C(=O)c2cnn3cccnc23)CC1`, the activity change, positive = activation came out at 52.2%. Still for that read-out and setting: the figure for `CCN(Cc1ccncc1)S(=O)(=O)c1ccc(C(C)=O)cc1` is inactive: -44.7%; for `Cc1c(Br)cc(C(=O)NCCCN2CCOCC2)c(C)c1C` it is 42.4%; for `CC1CCN(C(=O)Cn2c(=O)n(Cc3ccc4c(c3)OCO4)c(=O)c3ccccc32)CC1` it is 33.2%. The same measure, in the same setting: to `CC1CCCC(NC(=O)CSc2nnnn2C)C1C` (configuration not stated) belongs -33.1%; to `COc1ccc2[nH]c(=O)c(CN(C)C(=O)C3CCCCC3)cc2c1`, -75.2%; to `O=C(Nc1nc(-c2cccs2)cs1)c1ccc(S(=O)(=O)N2CCCC2)cc1`, -88%. For the molecule `Cc1cc(/C=C2\SC(N)=NC2=O)c(C)n1-c1ccccc1`, the Potency was active: 12.6 µM. On the same count and under the same terms, the figure for `Cc1cc(F)ccc1NC(=O)c1csc2c1CCC(C)C2` (configuration not stated) is active: 6.31 µM. Regarding `O=C(Nc1ccc(Cl)c([N+](=O)[O-])c1)C(NCCCO)c1ccccc1` (configuration not stated), the activity change, positive = activation was determined as 0.65%. The same measure, in the same setting: to `O=C(O/N=C/c1ccc2c(c1)OCO2)c1ccccc1Cl` belongs inactive: 2.71%.

With `O=C(NCCSc1ccccc1)c1ccc(Br)cc1`, the Potency is active: 6.31 µM. On to `Cc1ccc(S(=O)(=O)c2cccc(S(=O)(=O)N3CCCC3)c2)cc1S(=O)(=O)N1CCCC1`, for which the activity change, positive = activation is -36.9%.

In the case of `O=C(CSc1nc2ccccc2[nH]1)Nc1nc(-c2ccc(Br)cc2)cs1`, the “activity change, positive = activation” value was inactive: -36.4%.

`Cc1cc(SCNC(=O)c2ccccc2)nc(C(C)C)n1`: the activity change, positive = activation worked out at 31.6%. Regarding `CC(C)c1ccc2[nH]c(O)c(N=NC(=O)c3cccc(S(=O)(=O)N4CCCCC4)c3)c2c1`, the activity change, positive = activation is -59.5%. Consider `Cc1ccccc1S(=O)(=O)Cc1ccc(C(=O)NCCN2CCCCC2C)o1` (configuration not stated), for which the activity change, positive = activation amounted to 19.4%. In the case of `Cc1ccccc1C(=O)O/N=C(\N)c1ccncc1`, the activity change, positive = activation was found to be 162%.

Take `Cc1[nH]c(=O)[nH]c(=O)c1S(=O)(=O)N1CCC(C(=O)N2CCN(c3cccc(C(F)(F)F)c3)CC2)CC1`: the activity change, positive = activation is -46.2%. The same measure, in the same setting: to `C=C(CC1([C@@H](NP(=O)(c2ccccc2)c2ccccc2)[C@H]2C[C@@H]2CCCC)CC1)c1ccccc1` belongs -46.5%. Same read-out and setting: the figure for `Cc1onc(-c2ccccc2)c1C(=O)NCC1CCCO1` (configuration not stated) is 36%; for `CCOC(=O)C1=C(CSc2nc(-c3ccncc3)ccc2C#N)OC(N)=C(C#N)C1c1ccc(OC)cc1` (configuration not stated) it is -71.1%. For `COc1cc(Cl)cc(/C=C/c2ccc3ccccc3n2)c1OC(C)=O`, the Potency is active: 2.51 µM. Consider `COc1ccc2nc(-c3cccc(N)c3)[nH]c2c1`, for which the activity change, positive = activation was -31.8%. On the same count and under the same terms, to `CCC(=O)Nc1cc(C(=O)OCC(=O)c2ccccc2Cl)ccc1C` belongs 32.9%; to `CCOC(=O)c1c(C)[nH]c(=S)c(C#N)c1-c1ccc(OC)cc1`, 12.1%. On the same count and under the same terms, the figure for `CC(=O)NC(=O)c1ccc(-c2ccc(Cl)cc2)o1` is 51.9%. Still for that read-out and setting: the figure for `Cc1ccc2c3c1C1(C(=O)N3C(C)(C)CC2C)C(C#N)=C(N)Oc2cc(O)ccc21` (configuration not stated) is 16.5%. Take `c1ccc(-n2cnc3cc(NCc4ccccn4)ccc32)cc1`: the activity change, positive = activation was found to be 30.5%.

Turning to `NC(=O)c1ccc(NC(=O)COC(=O)c2c3c(nc4ccccc24)/C(=C\c2cccs2)CCC3)cc1`, the “activity change, positive = activation” value is inactive: -53.8%. Regarding `O=C(N/C=C/c1ccco1)OCc1ccccc1`, the Potency is active: 12.6 µM. On to `O=C(CSc1nnc(-c2cccs2)n1-c1ccccc1)N1CCOCC1`, for which the activity change, positive = activation worked out at 51.5%.

With `C(=N\Nc1ncnc2ccccc12)/c1ccccc1`, the Potency is active: 15.8 µM.

Consider `COc1ccc(-c2nc(-c3ccc(Br)o3)no2)cc1OC`, for which the Potency was active: 14.1 µM. The same measure, in the same setting: to `Cc1cc(C)c2nc(N3CCCC(C(=O)NCCCN4CCOCC4)C3)sc2c1` (configuration not stated) belongs active: 14.1 µM. Regarding `O=S(=O)(Nc1nc2ccc(S(=O)(=O)N3CCCCC3)cc2s1)c1ccccc1`, the activity change, positive = activation came to 65.6%. The same measure, in the same setting: to `O=C(NC(=S)Nc1ccc(N2CCCCC2)cc1)c1ccco1` belongs 32.4%.

As to `COc1ccc(-c2cc(=O)c3cc(C)ccc3[nH]2)cc1`, the Potency was active: 7.08 µM.

In the case of `CCOc1ccc2[nH]c(=O)c(CN(Cc3nnnn3Cc3ccco3)C3CCCCC3)cc2c1`, the activity change, positive = activation worked out at 49.6%. Consider `Cn1c(=O)c2c(nc(N3CCc4ccccc4C3)n2Cc2ccc(Br)cc2)n(C)c1=O`, for which the activity change, positive = activation came to 33.6%. Take `Cc1ccc(-c2nnc(SCC#N)n2N)cc1`: the activity change, positive = activation came to 37.7%.

As to `CC(C)CC(=O)/C(=C\c1ccc(Cl)cc1Cl)n1cncn1`, the “activity change, positive = activation” value was inactive: -111%. On the same count and under the same terms, to `CCc1ccc(/C=C2\SC(N3CCCC3)=NC2=O)cc1` belongs inactive: -38.1%. The same measure, in the same setting: the figure for `O=C(N=Nc1c(O)[nH]c2ccccc12)c1cccc(S(=O)(=O)N2CCCCC2)c1` is 37.3%; for `CS(=O)(=O)N(Cc1ccccc1F)c1ccccc1` it is 18.2%; for `COc1cc(-c2nc3c(c(C)nn3-c3ccccc3)c3cc(OC)c(OC)cc23)ccc1O` it is -44.9%. Still for that read-out and setting: to `COc1ccc(NC(=O)c2ccc(COCC(F)(F)C(F)F)cc2)cc1` belongs -15.3%.

Take `CC(CN1CCNCC1)(NS(=O)(=O)c1ccccc1)c1ccccc1` (configuration not stated): the activity change, positive = activation was determined as 33%.
